Laboratory results reported in patent US9040578B2, “Continuous administration of L-dopa, dopa decarboxylase inhibitors, catechol-O-methyl transferase inhibitors and compositions for same” (Neuroderm, Ltd., priority 2010, dated 2015).
For at least one compound, name, drawing or mass did not settle the structure.

Legend:
[1] = cited from earlier work
[2] = pH and dissolution of prepared solutions (Example 1); assay type: physicochemical; conditions: concentrations >1%; histidine, glutamic acid or buffers at various pHs

| Structure (SMILES) | pH compatibility, pKa [1] | Dissolution with other amino acids or buffers [2] |
| --- | --- | --- |
| O=C(O)[C@@H](S)[C@@H](S)C(=O)O [DMSA (succimer)] | pKa 3, 3.9 |  |
| CCN(CC)C(=O)/C(C#N)=C/c1cc(O)c(O)c([N+](=O)[O-])c1 [Entacapone, entacapone] |  | did not dissolve |
